The values that follow come from the supplement of paper PMC10849652.

Chains of the proteins cited; added tags and fusions are not shown. Lines headed by an entry give the natural chain unless they say otherwise; changes in a name come on top.
UniProt P57768: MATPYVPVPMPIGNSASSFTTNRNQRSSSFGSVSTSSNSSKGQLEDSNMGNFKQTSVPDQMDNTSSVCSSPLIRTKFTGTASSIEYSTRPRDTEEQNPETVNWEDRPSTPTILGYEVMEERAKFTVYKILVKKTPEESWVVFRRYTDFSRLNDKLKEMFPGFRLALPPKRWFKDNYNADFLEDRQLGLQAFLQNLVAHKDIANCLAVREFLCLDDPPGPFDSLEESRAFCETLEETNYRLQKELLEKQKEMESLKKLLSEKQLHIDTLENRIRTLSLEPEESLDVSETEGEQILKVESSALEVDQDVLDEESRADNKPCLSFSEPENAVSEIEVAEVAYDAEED
UniProt P62308, whole entry, looked up: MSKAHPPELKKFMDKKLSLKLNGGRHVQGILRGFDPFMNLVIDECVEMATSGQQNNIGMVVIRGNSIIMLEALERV
UniProt P62316, whole entry, looked up: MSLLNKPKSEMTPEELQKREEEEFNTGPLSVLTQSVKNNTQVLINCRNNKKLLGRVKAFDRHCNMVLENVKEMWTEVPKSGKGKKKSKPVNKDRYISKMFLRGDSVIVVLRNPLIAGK
UniProt Q96H20: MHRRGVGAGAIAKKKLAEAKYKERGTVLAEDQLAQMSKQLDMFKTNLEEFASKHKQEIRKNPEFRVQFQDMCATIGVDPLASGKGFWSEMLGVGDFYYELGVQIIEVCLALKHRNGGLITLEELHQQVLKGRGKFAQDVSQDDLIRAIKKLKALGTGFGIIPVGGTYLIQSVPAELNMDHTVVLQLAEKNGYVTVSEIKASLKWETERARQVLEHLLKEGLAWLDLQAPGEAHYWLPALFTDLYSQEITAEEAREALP
UniProt P09661: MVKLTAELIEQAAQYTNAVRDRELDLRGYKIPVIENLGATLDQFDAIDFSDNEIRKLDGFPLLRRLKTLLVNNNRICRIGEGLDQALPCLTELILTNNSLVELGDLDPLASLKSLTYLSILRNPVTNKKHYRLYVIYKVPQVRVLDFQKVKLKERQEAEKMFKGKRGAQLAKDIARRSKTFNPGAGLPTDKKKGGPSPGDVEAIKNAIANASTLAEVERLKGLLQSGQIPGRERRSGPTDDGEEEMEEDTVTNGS
UniProt O00161: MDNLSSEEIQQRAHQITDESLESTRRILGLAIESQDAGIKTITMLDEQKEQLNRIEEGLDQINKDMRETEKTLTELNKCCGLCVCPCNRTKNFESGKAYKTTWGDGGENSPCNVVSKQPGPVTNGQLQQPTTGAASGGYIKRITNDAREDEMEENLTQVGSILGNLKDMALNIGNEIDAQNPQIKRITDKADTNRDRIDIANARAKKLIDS
UniProt O95721: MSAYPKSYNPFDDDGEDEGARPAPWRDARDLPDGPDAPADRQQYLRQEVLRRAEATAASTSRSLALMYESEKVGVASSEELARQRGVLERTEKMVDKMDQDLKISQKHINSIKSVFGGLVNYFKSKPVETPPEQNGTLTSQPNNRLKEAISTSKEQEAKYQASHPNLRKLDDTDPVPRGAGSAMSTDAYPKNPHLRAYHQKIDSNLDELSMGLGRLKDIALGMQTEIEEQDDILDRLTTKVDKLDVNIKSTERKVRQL
UniProt Q6GMV2: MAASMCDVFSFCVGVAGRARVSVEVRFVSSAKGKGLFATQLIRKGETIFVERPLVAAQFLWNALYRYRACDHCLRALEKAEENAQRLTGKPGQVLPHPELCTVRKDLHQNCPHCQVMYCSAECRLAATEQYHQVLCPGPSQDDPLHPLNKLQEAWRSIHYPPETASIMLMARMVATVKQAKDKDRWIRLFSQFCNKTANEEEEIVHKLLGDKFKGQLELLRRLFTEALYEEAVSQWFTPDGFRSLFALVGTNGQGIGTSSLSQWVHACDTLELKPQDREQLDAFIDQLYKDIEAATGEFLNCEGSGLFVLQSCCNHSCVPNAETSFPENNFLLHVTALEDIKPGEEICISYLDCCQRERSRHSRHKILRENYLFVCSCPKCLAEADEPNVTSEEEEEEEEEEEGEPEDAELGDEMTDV
UniProt O75643, whole entry, looked up: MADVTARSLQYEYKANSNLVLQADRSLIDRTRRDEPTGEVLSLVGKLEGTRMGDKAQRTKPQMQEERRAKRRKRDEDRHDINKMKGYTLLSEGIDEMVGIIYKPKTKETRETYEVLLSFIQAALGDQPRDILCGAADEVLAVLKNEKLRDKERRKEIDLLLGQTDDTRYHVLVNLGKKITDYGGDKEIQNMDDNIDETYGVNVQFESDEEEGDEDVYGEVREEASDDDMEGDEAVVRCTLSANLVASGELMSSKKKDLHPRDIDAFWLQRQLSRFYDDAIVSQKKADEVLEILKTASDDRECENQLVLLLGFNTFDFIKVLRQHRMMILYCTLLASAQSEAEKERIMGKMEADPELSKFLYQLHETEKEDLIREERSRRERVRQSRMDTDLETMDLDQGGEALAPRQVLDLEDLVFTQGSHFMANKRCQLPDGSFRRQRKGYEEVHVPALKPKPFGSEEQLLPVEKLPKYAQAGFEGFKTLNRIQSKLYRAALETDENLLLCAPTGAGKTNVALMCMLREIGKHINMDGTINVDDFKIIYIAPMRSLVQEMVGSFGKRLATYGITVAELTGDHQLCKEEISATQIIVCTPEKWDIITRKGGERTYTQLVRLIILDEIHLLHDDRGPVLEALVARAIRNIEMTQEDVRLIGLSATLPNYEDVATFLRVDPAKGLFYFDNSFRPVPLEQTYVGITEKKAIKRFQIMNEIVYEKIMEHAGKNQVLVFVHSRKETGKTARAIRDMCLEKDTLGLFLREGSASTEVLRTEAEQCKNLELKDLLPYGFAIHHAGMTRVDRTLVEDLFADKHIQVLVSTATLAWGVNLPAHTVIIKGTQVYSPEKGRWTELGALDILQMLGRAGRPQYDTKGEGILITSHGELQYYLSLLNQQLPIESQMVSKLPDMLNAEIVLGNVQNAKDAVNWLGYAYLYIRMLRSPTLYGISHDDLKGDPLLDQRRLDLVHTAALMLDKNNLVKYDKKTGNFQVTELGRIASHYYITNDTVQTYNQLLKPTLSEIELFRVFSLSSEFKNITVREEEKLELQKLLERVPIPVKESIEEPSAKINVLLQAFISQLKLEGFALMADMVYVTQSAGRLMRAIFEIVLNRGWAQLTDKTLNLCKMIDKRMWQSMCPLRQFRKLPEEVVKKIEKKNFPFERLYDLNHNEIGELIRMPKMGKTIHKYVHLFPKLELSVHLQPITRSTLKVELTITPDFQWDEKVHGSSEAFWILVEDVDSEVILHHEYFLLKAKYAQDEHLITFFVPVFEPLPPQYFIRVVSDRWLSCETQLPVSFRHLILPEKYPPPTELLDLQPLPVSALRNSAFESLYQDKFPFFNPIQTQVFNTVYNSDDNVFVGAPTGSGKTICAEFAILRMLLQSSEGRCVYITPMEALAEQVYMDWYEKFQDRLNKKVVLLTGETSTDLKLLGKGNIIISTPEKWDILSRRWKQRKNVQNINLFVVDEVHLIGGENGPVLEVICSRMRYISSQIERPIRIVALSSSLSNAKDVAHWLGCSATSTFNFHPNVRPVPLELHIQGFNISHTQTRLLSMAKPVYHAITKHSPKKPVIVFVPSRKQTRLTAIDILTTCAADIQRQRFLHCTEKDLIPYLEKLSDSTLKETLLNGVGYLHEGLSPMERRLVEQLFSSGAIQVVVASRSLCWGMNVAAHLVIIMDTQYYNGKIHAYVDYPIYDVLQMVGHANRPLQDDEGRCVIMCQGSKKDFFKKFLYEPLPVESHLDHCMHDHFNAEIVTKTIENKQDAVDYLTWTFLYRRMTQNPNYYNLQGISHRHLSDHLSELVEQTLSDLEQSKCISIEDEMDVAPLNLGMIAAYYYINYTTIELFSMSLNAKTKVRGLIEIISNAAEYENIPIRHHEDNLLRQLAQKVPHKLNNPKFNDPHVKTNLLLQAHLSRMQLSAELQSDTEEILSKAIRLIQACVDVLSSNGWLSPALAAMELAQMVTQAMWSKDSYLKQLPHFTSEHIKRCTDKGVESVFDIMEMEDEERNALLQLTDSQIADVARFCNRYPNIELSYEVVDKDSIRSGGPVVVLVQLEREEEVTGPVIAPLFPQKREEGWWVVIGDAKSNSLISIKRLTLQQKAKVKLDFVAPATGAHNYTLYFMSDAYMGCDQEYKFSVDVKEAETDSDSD
UniProt O60906: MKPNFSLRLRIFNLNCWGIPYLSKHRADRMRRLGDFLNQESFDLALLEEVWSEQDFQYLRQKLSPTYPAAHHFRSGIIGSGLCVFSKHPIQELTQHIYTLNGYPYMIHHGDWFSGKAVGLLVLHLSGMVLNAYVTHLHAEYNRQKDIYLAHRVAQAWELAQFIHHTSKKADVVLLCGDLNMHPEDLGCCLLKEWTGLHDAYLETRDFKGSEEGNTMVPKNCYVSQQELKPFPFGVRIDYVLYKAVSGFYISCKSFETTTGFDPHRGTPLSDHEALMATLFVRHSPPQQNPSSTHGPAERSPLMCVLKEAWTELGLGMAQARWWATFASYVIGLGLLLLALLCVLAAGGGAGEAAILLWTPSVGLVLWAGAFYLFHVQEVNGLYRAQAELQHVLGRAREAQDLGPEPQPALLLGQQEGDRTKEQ
UniProt Q15599: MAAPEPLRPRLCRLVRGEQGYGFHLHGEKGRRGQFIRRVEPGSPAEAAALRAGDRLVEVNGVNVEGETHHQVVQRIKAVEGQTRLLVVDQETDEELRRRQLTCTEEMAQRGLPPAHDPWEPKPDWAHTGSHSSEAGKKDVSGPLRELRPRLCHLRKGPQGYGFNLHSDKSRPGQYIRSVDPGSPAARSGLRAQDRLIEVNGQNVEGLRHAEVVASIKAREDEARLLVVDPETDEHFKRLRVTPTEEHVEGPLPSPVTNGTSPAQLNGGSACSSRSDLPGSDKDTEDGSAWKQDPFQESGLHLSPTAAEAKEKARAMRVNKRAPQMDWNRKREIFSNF
UniProt Q96EX1: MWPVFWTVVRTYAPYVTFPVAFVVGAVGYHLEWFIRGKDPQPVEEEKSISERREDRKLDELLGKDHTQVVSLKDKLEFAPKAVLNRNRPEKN
UniProt P00441, whole entry, looked up: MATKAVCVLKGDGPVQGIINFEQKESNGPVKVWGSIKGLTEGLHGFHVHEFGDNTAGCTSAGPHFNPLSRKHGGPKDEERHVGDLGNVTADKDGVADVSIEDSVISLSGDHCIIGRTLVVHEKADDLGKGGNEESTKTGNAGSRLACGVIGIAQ
UniProt O14745: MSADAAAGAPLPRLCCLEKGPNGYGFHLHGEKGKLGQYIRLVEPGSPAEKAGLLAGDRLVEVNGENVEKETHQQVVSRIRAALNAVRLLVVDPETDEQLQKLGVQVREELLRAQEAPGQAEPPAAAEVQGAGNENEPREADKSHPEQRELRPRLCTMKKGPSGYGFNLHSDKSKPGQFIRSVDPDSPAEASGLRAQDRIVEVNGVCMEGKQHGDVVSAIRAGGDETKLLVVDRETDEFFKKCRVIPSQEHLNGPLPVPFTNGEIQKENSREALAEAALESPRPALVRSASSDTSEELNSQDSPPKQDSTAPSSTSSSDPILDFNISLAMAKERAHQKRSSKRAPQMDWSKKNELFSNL
UniProt Q15036: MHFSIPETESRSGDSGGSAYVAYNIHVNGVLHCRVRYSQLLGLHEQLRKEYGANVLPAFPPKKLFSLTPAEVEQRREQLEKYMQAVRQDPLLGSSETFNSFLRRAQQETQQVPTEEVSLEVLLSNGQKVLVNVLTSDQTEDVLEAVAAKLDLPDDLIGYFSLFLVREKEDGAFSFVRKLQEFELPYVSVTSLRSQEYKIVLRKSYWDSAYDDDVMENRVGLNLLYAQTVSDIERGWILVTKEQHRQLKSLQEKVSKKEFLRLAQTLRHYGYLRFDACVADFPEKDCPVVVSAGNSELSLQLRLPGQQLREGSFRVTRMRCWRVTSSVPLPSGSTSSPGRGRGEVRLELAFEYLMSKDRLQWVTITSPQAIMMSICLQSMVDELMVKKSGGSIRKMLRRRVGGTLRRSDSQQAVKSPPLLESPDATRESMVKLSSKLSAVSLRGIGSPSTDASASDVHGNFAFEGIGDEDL
UniProt O14508, whole entry, looked up: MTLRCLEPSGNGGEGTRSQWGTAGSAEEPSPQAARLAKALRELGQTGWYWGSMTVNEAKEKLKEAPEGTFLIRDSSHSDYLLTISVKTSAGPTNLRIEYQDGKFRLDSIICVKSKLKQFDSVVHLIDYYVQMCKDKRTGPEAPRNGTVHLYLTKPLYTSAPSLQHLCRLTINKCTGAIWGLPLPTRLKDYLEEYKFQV
UniProt Q00796: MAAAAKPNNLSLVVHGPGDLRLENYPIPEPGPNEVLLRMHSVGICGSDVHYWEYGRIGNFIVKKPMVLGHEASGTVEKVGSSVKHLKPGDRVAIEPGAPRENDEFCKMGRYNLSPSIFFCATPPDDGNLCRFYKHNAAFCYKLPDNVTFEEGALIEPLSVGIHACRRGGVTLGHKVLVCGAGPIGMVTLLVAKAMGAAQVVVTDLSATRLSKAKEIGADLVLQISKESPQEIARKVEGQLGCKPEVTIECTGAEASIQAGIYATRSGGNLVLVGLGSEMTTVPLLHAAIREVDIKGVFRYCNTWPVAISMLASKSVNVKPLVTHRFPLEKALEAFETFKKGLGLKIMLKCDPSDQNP

The other results are listed elsewhere or left out.

Compound in one test: CCn1c(C(=O)N(C2CC2)C2CC2)cc2c3c(ncn3C)c(Nc3cc(C)n(C)n3)nc21
Put plainly: log2 fold change, soluble protein after heating vs DMSO (PISA); higher = thermal stabilisation; K562 cells, 10 uM, 30 min; active = over 0.2 and 3.5 SD of the protein, either way, in both replicates (recomputed). An outline of the steps: (§1)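 K562 cells at 2×10^6 cells/mL were treated with 10 μM compound for 30 min. Aliquots were heated for 3 min across 48°C-58°C, pooled, and extracted in PBS with 0.5% NP-40 at 4°C; soluble protein was the supernatant after 21,000xg for 90 min. Soluble protein was quantified by TMTpro 16plex LC-MS/MS with channel sums equalised, and reported as log2 fold change in thermal stability against DMSO controls, with values from duplicates.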
As for SNX16 (UniProt P57768), the log2 fold change is inactive: -0.288.
On the same count and under the same terms, the same measure for SNRPG (UniProt P62308): inactive: 0.026; for SMN1 (UniProt Q16637): inactive: -0.071.
On the same count and under the same terms, to SNRPD2 (UniProt P62316) belongs inactive: 0.011.
Still for that read-out and setting: to SNF8 (UniProt Q96H20) belongs inactive: 0.008; to SNRPA1 (UniProt P09661), inactive: 0.034; to SNX8 (UniProt Q9Y5X2), inactive: -0.04.
Turning to SNU13, A0A3B3IUA2, the log2 fold change is inactive: -0.027.
On the same count and under the same terms, the same measure for SOD2 (UniProt P04179): inactive: -0.004.

Compound in a further test: CCn1cc(-c2ccnc3[nH]c(-c4cccc(CN(C)C)c4)cc23)c(-c2ccc(NC(=O)N(C)C)cc2)n1
The description is as above. In outline:
as §1
SLMAP (UniProt Q14BN4): the log2 fold change is inactive: -0.002.
As to SNAP23 (UniProt O00161), the log2 fold change is inactive: 0.025.
Still for that read-out and setting: to SNAP29 (UniProt O95721) belongs inactive: 0.038.
The same measure, in the same setting: to SMYD5 (UniProt Q6GMV2) belongs inactive: 0.032; to SMAP1 isoform 2 (UniProt Q8IYB5), inactive: -0.074; to SNRNP200 (UniProt O75643), inactive: -0.003.
Still for that read-out and setting: the same measure for SMPD2 (UniProt O60906): inactive: -0.053.
On to SPAG5 (UniProt Q96R06), for which the log2 fold change was inactive: 0.082.
Same read-out and setting: the same measure for SLC9A3R2 (UniProt Q15599): inactive: -0.04; for SLC9A1 (UniProt P19634): inactive: 0.014.
Turning to SNCA (UniProt P37840), the log2 fold change is inactive: -0.026.
Same read-out and setting: to SMIM12 (UniProt Q96EX1) belongs inactive: -0.025; to SNRPC (UniProt Q5TAL2), inactive: -0.155.
In the case of SOD1 (UniProt P00441), the log2 fold change is inactive: 0.072.
Same read-out and setting: to SLC9A3R1 (UniProt O14745) belongs inactive: -0.01; to SMG7 isoform 4 (UniProt Q92540), inactive: 0.053; to SMU1 (UniProt Q2TAY7), inactive: -0.038.
On the same count and under the same terms, the same measure for SMC1A (UniProt Q14683): inactive: 0.037; for SNX17 (UniProt Q15036): inactive: 0.049.
Still for that read-out and setting: the same measure for SMARCC2 (UniProt Q8TAQ2): inactive: -0.048.
SOCS2 (UniProt O14508): the log2 fold change was inactive: -0.032.
Still for that read-out and setting: to SORD (UniProt Q00796) belongs inactive: -0.015.
Same read-out and setting: to SMC1B isoform 3 (UniProt Q8NDV3) belongs inactive: 0.166; to SNX16 (UniProt P57768), inactive: 0.018; to SNRPG (UniProt P62308), inactive: 0.025.
Still for that read-out and setting: the same measure for SMN1 (UniProt Q16637): inactive: -0.001.
For SNRPD2 (UniProt P62316), the log2 fold change was inactive: 0.08.
On the same count and under the same terms, the same measure for SNF8 (UniProt Q96H20): inactive: 0.008.
Still for that read-out and setting: to SNRPA1 (UniProt P09661) belongs inactive: 0.099.
On the same count and under the same terms, the same measure for SNX8 (UniProt Q9Y5X2): inactive: 0.032; for SNU13, A0A3B3IUA2: inactive: 0.1.
Take SOD2 (UniProt P04179): the log2 fold change was inactive: 0.034.
